Test results published in patent US20170327598A1 (published 2017).
These are yes or no findings as the source states them, for the method shown. Some entries that bind do so weakly or less than the wild type.

Amino acid sequences for entries named in this document (tags omitted). Residues count along the entry.
UniProt P01375, residues 77-233: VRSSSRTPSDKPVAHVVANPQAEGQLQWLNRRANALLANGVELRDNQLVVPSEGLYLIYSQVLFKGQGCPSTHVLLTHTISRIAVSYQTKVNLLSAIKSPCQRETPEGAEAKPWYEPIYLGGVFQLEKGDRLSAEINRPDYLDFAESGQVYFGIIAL

How the values were obtained:
[1] = biological target: T1, active human TNF-α full length protein (human, UniProt P01375 77-233); test: ELISA, TNF-α coated, sdAb in four 10-fold dilutions from 1 µg/mL, Experiment 4
[2] = biological target: T1, active human TNF-α full length protein; test: ELISA, wells coated with 0.5 µg/mL TNF-α against non-coated wells
[3] = biological target: T1, active human TNF-α full length protein; test: ELISA, TNF-α coated, sdAb 1 µg/mL, Experiment 1
[4] = biological target: T1, active human TNF-α full length protein; test: ELISA, TNF-α coated

- binding [1]: binds
- binding [2]: binds
- binding [3]: binds
- binding [4]: binds
B1: anti-TNF-alpha VHH69 (SEQ ID NO:46) sdAb (VHH)
VHH: EVQLVESGGGSVLAGGSLRLSCVASGFTSRYNYMAWFRQAPGKEREGVATIGTASGSADYYGSVKDRFTISQDNAKNTVYLQMNSLKPEDTAMYYCAARTYGTISLTPSDYRYWGQGTLVTVSS
